Laboratory results: US6677335B1, “Pharmaceutically active compounds” (Pfizer Inc, priority 1999, dated 2004)
Some entries share one result that the patent states for a list of compounds.

Target: T1, cGMP PDE5 (Homo sapiens, UniProt O76074)
T1 construct: The IC50 measurements for cGMP PDE5 were based upon data generated on human corpus cavernosum tissue; from tissue; host or cells: human corpus cavernosum
Assay: In vitro PDE inhibitory activity against cGMP PDE5 (IC50)
Type: biochemical
Conditions: PDE5 enzyme
Source text: The IC50 measurements for cGMP PDE5 were based upon data generated on human corpus cavernosum tissue and the IC50 measurements for rod cGMP PDE6 were based upon data generated on bovine retina tissue and wherein the selectivity ratio for cGMP PDE5 to cGMP PDE6 quoted is based upon IC50 PDE5/IC50 PDE6.

Row | SMILES | IC50
1 | CCCc1c2nc(-c3cc(S(=O)(=O)N4CCN(CC)CC4)cnc3OCC)[nH]c(=O)c2nn1CCOC [Example 3, 5-[2-Ethoxy-5-(4-ethylpiperazin-1-ylsulphonyl)pyridin-3-yl]-2-[2-methoxyethyl]-3-n-propyl-2,6-dihydro-7H-pyrazolo[4,3-d]pyrimidin-7-one] | < 5 nM
2 | CCOc1ncc(S(=O)(=O)N2CCN(CC)CC2)cc1-c1nc2c(CC)n(CCn3cccn3)nc2c(=O)[nH]1 [Example 11, 5-[2-Ethoxy-5-(4-ethylpiperazin-1-ylsulphonyl)pvridin-3-yl]-3-ethyl-2-[2-(pyrazol-1-yl)ethyl]-2,6-dihydro-7H-pyrazolo[4,3-d]pvrimidin-7-one] | < 5 nM
3 | CCOc1ncc(S(=O)(=O)N2CCN(CC)CC2)cc1-c1nc2c(CC)n(CCNC)nc2c(=O)[nH]1 [Example 12, 5-[2-Ethoxy-5-(4-ethylpiperazin-1-ylsulphonyl)pvridin-3-yl]-3-ethyl-2-[2-(methylamino)ethyl]-2,6-dihydro-7H-pyrazolo[4,3-d]pyrimidin-7-one] | < 5 nM
4 | CCOc1ncc(S(=O)(=O)N2CCN(CC)CC2)cc1-c1nc2c(CC)n(C3CN(C)C3)nc2c(=O)[nH]1 [Example 16, 5-[2-Ethoxy-5-(4-ethylpiperazin-1-ylsulphonyl)pvridin-3-yl]-3-ethyl-2-(1-methylazetidin-3-yl)-2,6-dihydro-7H-pyrazolo[4,3-d]pyrimidin-7-one] | < 10 nM
5 | CCCC(C)Oc1ncc(S(=O)(=O)N2CCN(CC)CC2)cc1-c1nc2c(CC)n(C3CNC3)nc2c(=O)[nH]1 (centres unmarked) [Example 19, 2-(Azetidin-3-yl)-5-[5-(4-ethylpiperazin-1-ylsulphonyl)-2-(1-methylbutoxy)pyridin-3-yl]-3-ethyl-2,6-dihydro-7H-pyrazolo[4,3-d]pyrimidin-7-one Ditrifluoroacetate] | < 10 nM
6 | CCOc1ncc(S(=O)(=O)N2CCN(CC)CC2)cc1-c1nc2c(CC)n(C3CN(CC)C3)nc2c(=O)[nH]1 [Example 21, 5-[2-Ethoxy-5-(4-ethylpiperazin-1-ylsulphonyl)pyridin-3-yl]-3-ethyl-2-(1-ethylazetidin-3-yl)-2,6-dihydro-7H-pyrazolo[4,3-d]pyrimidin-7-one] | < 10 nM
7 | CCOc1ncc(S(=O)(=O)N2CCN(CC)CC2)cc1-c1nc2c(CC)n(C3CN(C(C)=O)C3)nc2c(=O)[nH]1 [Example 22, 2-(1-Acetylazetidin-3-yl)-5-[2-ethoxy-5-(4-ethylpiperazin-1-ylsulphonyl)pyridin-3-yl]-3-ethyl-2,6-dihydro-7H-pyrazolo[4,3-d]pyrimidin-7-one] | < 10 nM
8 | CCCc1c2nc(-c3cc(S(=O)(=O)N4CCN(CC)CC4)cnc3OCCOC)[nH]c(=O)c2nn1CCOC [Example 29] | < 5 nM
9 | CCc1c2nc(-c3cc(S(=O)(=O)N4CCN(CC)CC4)cnc3OCCOC)[nH]c(=O)c2nn1C(C)COC (centres unmarked) [Example 43, 3-Ethyl-5-[5-(4-ethylpiperazin-1-ylsulphonyl)-2-(2-methoxyethoxy)pyridin-3-yl]-2-(2-methoxy-1-methylethyl)-2,6-dihydro-7H-pyrazolo[4,3-d]pyrimidin-7-one] | < 5 nM
10 | CCc1c2nc(-c3cc(S(=O)(=O)N4CCN(CC)CC4)cnc3OC(C)COC)[nH]c(=O)c2nn1CCO (centres unmarked) [Example 48, 3-Ethyl-5-[5-(4-ethylpiperazin-1-ylsulphonyl)-2-(2-methoxy-1-methylethoxy)pyridin-3-yl]-2-(2-hydroxyethyl)-2,6-dihydro-7H-pyrazolo[4,3-d]pyrimidin-7-one] | < 5 nM
11 | CCOc1ncc(S(=O)(=O)N2CCN(CC)CC2)cc1-c1nc2c(CC)n(CCO)nc2c(=O)[nH]1 [Example 49, 5-[2-Ethoxy-5-(4-ethylpiperazin-1-ylsulphonyl)pyridin-3-yl]-3-ethyl-2-(2-hydroxyethyl)-2,6-dihydro-7H-pyrazolo[4,3-d]pyrimidin-7-one] | < 10 nM
12 | CCCCOc1ncc(S(=O)(=O)N2CCN(CC)CC2)cc1-c1nc2c(CC)n(CCCN(C)C)nc2c(=O)[nH]1 [Example 57] | < 5 nM
13 | CCOc1ncc(S(=O)(=O)N2CCN(CC)CC2)cc1-c1nc2c(CC)n(-c3ccccc3)nc2c(=O)[nH]1 [Example 66, 5-[2-Ethoxy-5-(4-ethylpiperazin-1-ylsulphonyl)pyridin-3-yl]-3-ethyl-2-phenyl-2,6-dihydro-7H-pyrazolo[4,3-d]pyrimidin-7-one] | < 10 nM
14 | CCOc1ncc(S(=O)(=O)N2CCN(CC)CC2)cc1-c1nc2c(CC)n(-c3ccc(C#N)cc3)nc2c(=O)[nH]1 [Example 67, 2-(4-Cyanophenyl)-5-[2-exthoxy-5-(4-ethylpiperazin-1-ylsulphonyl)pyridin-3-yl]-3-ethyl-2,6-dihydro-7H-pyrazolo[4,3-d]pyrimidin-7-one] | < 10 nM
15 | CCOc1ncc(S(=O)(=O)N2CCN(CC)CC2)cc1-c1nc2c(CC)n(-c3ccccn3)nc2c(=O)[nH]1 [Example 68, 5-[2-Ethoxy-5-(4-ethylpiperazin-1-ylsulphonyl)pyridin-3-yl]-3-ethyl-2-(pyridin-2-yl)-2,6-dihydro-7H-pyrazolo[4,3-d]pyrimidin-7-one Ditrifluoroacetate] | < 10 nM
16 | CCc1c2nc(-c3cc(S(=O)(=O)N4CCN(CC)CC4)cnc3OCCOC)[nH]c(=O)c2nn1-c1ccccc1 [Example 75, 3-Ethyl-5-[5-(4-ethylpiperazin-1-ylsulphonyl)-2-(2-methoxyethoxy)pyridin-3-yl]-2-phenyl-2,6-dihydro-7H-pyrazolo[4,3-d]pyrimidin-7-one] | < 10 nM
17 | CCOc1ncc(S(=O)(=O)N2CCN(CC)CC2)cc1-c1nc2c(CC)nn(CCOC)c2c(=O)[nH]1 [Example 77, 5-[2-Ethoxy-5-(4-ethylpiperazin-1-ylsulphonyl)pyridin-3-yl]-3-ethyl-1-(2-methoxyethyl)-1,6-dihydro-7H-pyrazolo[4,3-d]pyrimidin-7-one] | < 10 nM
18 | CCc1c2nc(-c3cc(S(=O)(=O)N4CCN(C)CC4)cnc3OCCOC)[nH]c(=O)c2nn1[C@@H](C)CC [Example 94, 3-Ethyl-5-[2-(2-mexthoxyethoxy)-5-(4-methylpiperazin-1-ylsulphonyl)pyridin-3-yl]-2-[(1S)-1-methylpropyl]-2,6-dihydro-7H-pyrazolo[4,3-d]pyrimidinone] | < 5 nM
19 | CCc1c2nc(-c3cc(S(=O)(=O)N4CCN(C)CC4)cnc3OCCOC)[nH]c(=O)c2nn1[C@H](C)CC [Example 95, 3-Ethyl-5-[2-(2-methoxyexthoxy)-5-(4-methylpiperazin-1-ylsulphonyl)pyridin-3-yl]-2-[(1R)-1-methylpropyl]-2,6-dihydro-7H-pyrazolo[4,3-d]pyrimidinone] | < 5 nM
20 | CCc1c2nc(-c3cc(S(=O)(=O)N4CCN(C)CC4)cnc3OCCOC)[nH]c(=O)c2nn1CC1CC1 [Example 97, 2-Cyclopropylmethyl-3-ethyl-5-[2-(2-mexthoxyethoxy)-5-(4-methylpiperazin-1-ylsulphonyl)pyridin-3-yl]-2,6-dihydro-7H-pyrazolo[4,3-d]pyrimidinone] | < 5 nM
